This is an account of results in publication PMC7862700.

This assay has as its target T1, ETV4 (UniProt P43268).
T1 sequence: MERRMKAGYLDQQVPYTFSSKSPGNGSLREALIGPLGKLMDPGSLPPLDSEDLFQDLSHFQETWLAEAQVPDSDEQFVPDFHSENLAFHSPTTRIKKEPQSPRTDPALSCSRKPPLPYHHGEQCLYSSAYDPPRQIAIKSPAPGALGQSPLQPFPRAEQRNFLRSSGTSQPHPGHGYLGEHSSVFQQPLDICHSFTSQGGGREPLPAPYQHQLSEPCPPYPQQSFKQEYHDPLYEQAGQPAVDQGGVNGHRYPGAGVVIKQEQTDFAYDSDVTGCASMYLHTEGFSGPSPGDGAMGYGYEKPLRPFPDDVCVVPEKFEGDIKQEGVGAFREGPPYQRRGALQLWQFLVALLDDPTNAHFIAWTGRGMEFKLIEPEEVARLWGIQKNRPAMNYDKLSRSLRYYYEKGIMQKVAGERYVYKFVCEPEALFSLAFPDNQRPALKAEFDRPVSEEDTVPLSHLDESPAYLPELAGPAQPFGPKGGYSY
Put plainly: DAPPL (digital affinity profiling via proximity ligation, sequencing). The settings on record: 10 mM Tris-HCl pH 7.5, 50 mM NaCl, 1 mM DTT, 4% glycerol, room temperature, 30 min; GST-TFs on glutathione beads, 16-mer random dsDNA library, 0.1% …; high values mean tight binding; double strand, one strand shown; scale: fold enrichment (6-mer frequency, TF over GST control).

The other results are listed elsewhere or left out. The source does not settle which construct or isoform was used.

With GGGCTT, the binding signal amounted to 1.35. ATACCG displayed a binding signal of 1.12. In the case of ATATGG, the binding signal was 1.28. As to TGACAC, the binding signal stood at 1.25.

Take CGATCG: the binding signal turned out to be 1.06.

In turn, TTTTAC came in with a binding signal of 1.35. Consider TACCCT, for which the binding signal was found to be 1.32. TACTCT showed a binding signal of 1.4. With CATATA the figure was 1.07; with GCACCC, 1.19. The value for TTAAAA was 1.22; that for ACTAAG was 1.05; that for ATTCCG was 1.68. With GATTAC the figure was 1.1; with ATGACT, 1.52. Sequence CTCGAT displayed a binding signal of 1.36.

With TACTGC, the binding signal was 1.22. Consider CCGCCT, for which the binding signal is 1.59. The value for GGCCTA was 1.35; that for TTGGCC was 1.21; that for GATGGT was 1.2. In turn, TACTCG came in with a binding signal of 1.3. CTCCGG had a binding signal of 1.63. As for CAAATA, the binding signal stood at 1.07. On to CTGGAC, for which the binding signal was 1.17. With TGCGCG the figure was 1.11; with TTAACA, 1.13; with TCGTAC, 1.1.

The sequence CCCTAC returned a binding signal of 1.41. In the case of TCCATC, the binding signal came to 1.17.

For the sequence ATAGCT, the binding signal was determined as 1.14. In turn, TACCGC showed a binding signal of 1.12. The value for CGCGTC was 1.3. Consider TGTATC, for which the binding signal turned out to be 1.36.

The sequence TTGGTG had a binding signal of 1.26. The value for ACCCTA was 1.22; that for TAGCAC was 1.14. As to GTTCAT, the binding signal is 1.14.

Consider TTCTCA, for which the binding signal came out at 1.21. In turn, TACGCC registered a binding signal of 1.2. GAAGTT came in with a binding signal of 1.71. Take CCTCGT: the binding signal turned out to be 1.26.
